# In the supplement of paper PMC6411743:
# By UniProt entry, the sequences of proteins in these tests, tags left out. Where a name states a change or a piece, a line headed by the entry shows the natural chain unless it says otherwise.
# UniProt Q9UKV5, whole entry: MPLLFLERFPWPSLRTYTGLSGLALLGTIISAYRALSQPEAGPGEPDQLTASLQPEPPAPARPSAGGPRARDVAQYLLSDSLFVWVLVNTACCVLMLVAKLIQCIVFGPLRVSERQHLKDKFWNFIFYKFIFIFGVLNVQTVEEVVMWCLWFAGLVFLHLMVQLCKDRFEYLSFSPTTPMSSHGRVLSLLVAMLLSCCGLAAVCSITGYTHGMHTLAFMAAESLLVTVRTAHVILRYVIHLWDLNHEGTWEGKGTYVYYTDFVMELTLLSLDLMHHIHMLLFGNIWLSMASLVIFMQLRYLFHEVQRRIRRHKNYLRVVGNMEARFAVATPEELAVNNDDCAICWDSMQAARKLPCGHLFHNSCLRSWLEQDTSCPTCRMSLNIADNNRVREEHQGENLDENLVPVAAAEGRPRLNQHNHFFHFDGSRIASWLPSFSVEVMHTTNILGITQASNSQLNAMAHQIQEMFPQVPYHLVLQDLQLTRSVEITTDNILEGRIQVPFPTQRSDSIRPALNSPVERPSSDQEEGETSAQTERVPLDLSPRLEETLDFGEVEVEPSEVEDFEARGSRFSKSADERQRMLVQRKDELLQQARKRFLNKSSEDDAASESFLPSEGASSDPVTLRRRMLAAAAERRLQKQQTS
# UniProt Q9UJK0: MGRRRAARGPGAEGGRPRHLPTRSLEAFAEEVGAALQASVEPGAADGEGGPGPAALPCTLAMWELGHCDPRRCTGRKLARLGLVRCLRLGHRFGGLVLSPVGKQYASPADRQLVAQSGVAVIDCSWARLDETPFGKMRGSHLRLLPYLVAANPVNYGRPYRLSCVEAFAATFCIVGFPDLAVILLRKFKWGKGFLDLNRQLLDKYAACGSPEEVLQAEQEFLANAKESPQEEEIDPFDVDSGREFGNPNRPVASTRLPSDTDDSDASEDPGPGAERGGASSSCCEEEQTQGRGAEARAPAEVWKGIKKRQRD
# UniProt Q9UH99: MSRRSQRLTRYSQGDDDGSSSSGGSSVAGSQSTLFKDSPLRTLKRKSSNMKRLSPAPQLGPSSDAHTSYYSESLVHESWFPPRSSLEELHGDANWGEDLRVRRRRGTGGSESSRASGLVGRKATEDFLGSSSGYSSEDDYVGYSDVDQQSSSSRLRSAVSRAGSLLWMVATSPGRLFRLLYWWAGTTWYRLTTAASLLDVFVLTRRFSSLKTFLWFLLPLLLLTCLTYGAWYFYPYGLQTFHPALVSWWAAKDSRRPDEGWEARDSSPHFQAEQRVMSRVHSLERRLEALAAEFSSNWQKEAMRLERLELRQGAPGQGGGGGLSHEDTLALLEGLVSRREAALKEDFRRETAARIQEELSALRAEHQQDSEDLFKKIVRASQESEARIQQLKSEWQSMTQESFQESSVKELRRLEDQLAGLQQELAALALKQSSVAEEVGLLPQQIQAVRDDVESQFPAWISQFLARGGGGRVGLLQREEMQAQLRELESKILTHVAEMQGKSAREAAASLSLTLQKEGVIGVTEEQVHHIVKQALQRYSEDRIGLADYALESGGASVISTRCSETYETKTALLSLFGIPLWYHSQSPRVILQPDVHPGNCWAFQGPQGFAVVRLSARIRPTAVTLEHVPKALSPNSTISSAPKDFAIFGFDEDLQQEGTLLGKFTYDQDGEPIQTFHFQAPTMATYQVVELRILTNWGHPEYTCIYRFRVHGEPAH
# UniProt Q9UDY8: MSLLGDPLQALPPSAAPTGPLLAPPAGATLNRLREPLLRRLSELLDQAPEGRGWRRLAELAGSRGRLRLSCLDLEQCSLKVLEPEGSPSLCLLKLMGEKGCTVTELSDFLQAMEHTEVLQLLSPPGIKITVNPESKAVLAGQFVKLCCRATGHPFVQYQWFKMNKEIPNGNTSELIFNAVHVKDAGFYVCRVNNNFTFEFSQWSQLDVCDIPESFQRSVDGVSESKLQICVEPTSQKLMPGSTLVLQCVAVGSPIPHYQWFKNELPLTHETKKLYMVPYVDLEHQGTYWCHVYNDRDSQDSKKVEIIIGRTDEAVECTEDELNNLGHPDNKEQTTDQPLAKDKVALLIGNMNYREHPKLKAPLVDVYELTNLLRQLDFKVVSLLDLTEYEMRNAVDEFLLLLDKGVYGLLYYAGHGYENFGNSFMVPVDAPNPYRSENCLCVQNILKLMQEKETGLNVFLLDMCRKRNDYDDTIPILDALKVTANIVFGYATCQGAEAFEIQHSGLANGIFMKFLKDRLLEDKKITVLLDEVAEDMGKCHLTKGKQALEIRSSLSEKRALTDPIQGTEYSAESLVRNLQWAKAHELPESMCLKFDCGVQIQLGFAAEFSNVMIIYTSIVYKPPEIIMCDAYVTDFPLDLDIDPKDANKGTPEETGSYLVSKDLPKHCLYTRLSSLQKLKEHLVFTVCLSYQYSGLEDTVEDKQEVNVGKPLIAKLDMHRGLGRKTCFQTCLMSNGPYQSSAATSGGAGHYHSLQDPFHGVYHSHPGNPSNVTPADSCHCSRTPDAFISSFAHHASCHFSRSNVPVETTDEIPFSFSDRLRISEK
# UniProt Q9UHB9: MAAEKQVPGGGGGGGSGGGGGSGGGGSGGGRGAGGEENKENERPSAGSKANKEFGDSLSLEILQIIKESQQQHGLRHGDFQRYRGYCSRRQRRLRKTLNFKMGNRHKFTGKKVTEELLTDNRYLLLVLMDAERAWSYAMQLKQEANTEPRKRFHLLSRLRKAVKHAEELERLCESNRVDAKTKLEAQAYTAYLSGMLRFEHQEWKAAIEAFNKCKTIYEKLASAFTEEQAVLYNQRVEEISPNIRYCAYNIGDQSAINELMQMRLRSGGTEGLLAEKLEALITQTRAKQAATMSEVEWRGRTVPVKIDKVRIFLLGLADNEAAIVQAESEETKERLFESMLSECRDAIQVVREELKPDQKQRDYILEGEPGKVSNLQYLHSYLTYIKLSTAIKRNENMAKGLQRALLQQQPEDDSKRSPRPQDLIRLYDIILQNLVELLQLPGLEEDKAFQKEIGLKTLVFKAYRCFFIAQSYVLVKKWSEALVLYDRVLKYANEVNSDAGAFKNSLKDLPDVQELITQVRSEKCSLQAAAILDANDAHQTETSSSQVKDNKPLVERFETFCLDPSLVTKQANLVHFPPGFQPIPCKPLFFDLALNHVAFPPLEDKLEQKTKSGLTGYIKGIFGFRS
# ± gives the standard deviation of the averaged measurements. The list shows a part of the results.
# Compound: Nc1nc2c(ncn2[C@@H]2O[C@H](COP(=O)(O)OP(=O)(O)OP(=O)(O)O)[C@@H](O)[C@H]2O)c(=O)[nH]1 [guanosine triphosphate]
# Experiment: NP40-soluble protein abundance relative to vehicle (solubility fold change) (ratio); higher = more soluble protein in presence of GTP
# Description: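 Solubility proteome profiling in Jurkat crude lysate. Lysate was treated with Mg-GTP (0.1-10 mM) for 10 min at room temperature and 3 min at 37 °C, then solubilised with 0.8% NP40 and benzonase, followed by ultracentrifugation. Proteins were quantified by TMT10 LC-MS/MS; the value is the NP40-soluble abundance relative to the NP40-processed vehicle, from 3 independent experiments.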
Target,NP40-soluble protein abundance (concentration: 0.1mM),NP40-soluble protein abundance (concentration: 0.5mM),NP40-soluble protein abundance (concentration: 1mM),NP40-soluble protein abundance (concentration: 2mM),NP40-soluble protein abundance (concentration: 4mM),NP40-soluble protein abundance (concentration: 6mM),NP40-soluble protein abundance (concentration: 8mM),NP40-soluble protein abundance (concentration: 10mM)
AMFR (UniProt Q9UKV5),1.03 ± 0.011,1.03 ± 0.036,1.06 ± 0.03,1.06 ± 0.017,1.04 ± 0.019,1.01 ± 0.034,1.04 ± 0.1,1.05 ± 0.081
UniProt Q9UJK0,1.03 ± 0.061,1.03 ± 0.025,0.968 ± 0.025,0.892 ± 0.077,0.9682 ± 0.0083,0.969 ± 0.021,0.959 ± 0.024,0.908 ± 0.0051
UniProt Q9UH99 and related entries,1.045 ± 0.0039,1.14 ± 0.033,1.09 ± 0.025,1.11 ± 0.016,1.09 ± 0.022,1.11 ± 0.036,1.13 ± 0.026,1.11 ± 0.023
UniProt Q9UDY8 and related entries,1.05 ± 0.095,1.02 ± 0.073,0.947 ± 0.13,0.987 ± 0.052,0.994 ± 0.088,0.945 ± 0.073,0.9385 ± 0.0082,0.852 ± 0.066
SRP68 (UniProt Q9UHB9),0.949 ± 0.033,0.955 ± 0.034,0.981 ± 0.033,1 ± 0.044,1.04 ± 0.033,1.04 ± 0.044,1.05 ± 0.032,1.06 ± 0.045
